These are yes or no findings as the source states them, for the method shown. In cells and extracts the contact can be indirect. A result given as binding can be weak or reduced; the word gives no strength.
Columns and labels:
[1] = biological target: T1, KREPA2 (Trypanosoma brucei (endogenous in BF and PF cells)); experiment: co-IP; BF cells: anti-KREPA2 (P1H3-D7) on anti-mouse IgG Dynabeads, cleared lysate of 1 x 10^8 cells in IPP150 (10 mM Tris-HCl pH 8.0, 150 mM NaCl, 0.1% Nonidet P-40) with 1% Triton X-100; Western blot with anti-V5 and antibodies to editosome proteins
T1 sequence: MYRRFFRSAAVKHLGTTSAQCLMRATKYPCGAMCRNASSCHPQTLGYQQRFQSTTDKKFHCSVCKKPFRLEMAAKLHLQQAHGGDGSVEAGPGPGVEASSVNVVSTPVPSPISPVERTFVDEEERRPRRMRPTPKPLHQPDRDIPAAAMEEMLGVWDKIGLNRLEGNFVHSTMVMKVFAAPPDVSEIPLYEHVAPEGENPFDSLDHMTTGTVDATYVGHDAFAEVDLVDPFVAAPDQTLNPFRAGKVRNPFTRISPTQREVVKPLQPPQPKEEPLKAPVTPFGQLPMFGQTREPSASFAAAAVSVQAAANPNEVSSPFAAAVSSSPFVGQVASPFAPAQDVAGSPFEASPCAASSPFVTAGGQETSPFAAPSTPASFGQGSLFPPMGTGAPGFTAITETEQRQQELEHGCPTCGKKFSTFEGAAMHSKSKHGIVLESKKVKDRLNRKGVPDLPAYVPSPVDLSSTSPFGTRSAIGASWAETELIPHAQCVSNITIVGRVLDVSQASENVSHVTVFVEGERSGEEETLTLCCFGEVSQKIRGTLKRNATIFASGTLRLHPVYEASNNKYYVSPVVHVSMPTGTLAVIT

[2] = biological target: T1, KREPA2 (Trypanosoma brucei (endogenous in BF and PF cells)); experiment: co-IP; PF CN cells: anti-KREPA2 (P1H3-D7) on anti-mouse IgG Dynabeads, cleared lysate of 1 x 10^8 cells in IPP150 (10 mM Tris-HCl pH 8.0, 150 mM NaCl, 0.1% Nonidet P-40) with 1% Triton X-100; Western blot with anti-V5 and antibodies to editosome proteins

binding [1]	binding [2]	Substance
binds	binds	KREPA1
binds	binds	N-terminal 3xV5-tagged KREPB9, wild type (Trypanosoma brucei)

More lines, now with the values behind:

Substance	binding [1]	binding [2]
N-terminal 3xV5-tagged KREPB10, wild type (Trypanosoma brucei)	binds	binds
N-terminal 3xV5-tagged KREPB9 G270V (Trypanosoma brucei)	–	binds
KREPA3	binds	binds
N-terminal 3xV5-tagged KREPB10 G238V (Trypanosoma brucei)	–	binds

Reference: publication PMC5770545
